PubChem BioAssay AID504791 | Drosophila RNAi Screening Center, 2011
In all, the deposit lists about 23,000 reagents; below is a random part of those with a known target gene and a result. In the full data, 199 (0.86%) are marked active. 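Plate-scaled ratios behind the calls are not deposited; printed light signals are raw; many rows marked increased or decreased are still called inactive.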 A number with no mark means an inactive call. A plus sign joins genes that one reagent is predicted to hit. Reagent sequences are not shown. The record does not give: the direction of the score.

- Aim: 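Factors in Argonaute-based small RNA production and activity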 (primary screen)
- Cells: Drosophila S2-derived reporter cells
- Reagent: long dsRNA against Drosophila genes, about 150-250 ng dsRNA per well (siRNA assay); about 80-120 ng (miRNA assay)
- Time to read-out: about 5 days (siRNA assay); about 4 days (miRNA assay)
- Challenge: copper sulfate induction of reporters: 25 µM (siRNA assay); 200 mM stated (miRNA assay), 1-2 days before reading
- Measured: 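Per-well ratio of Renilla over firefly light, expressed relative to that plate's average ratio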
- Hit rule: 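First-pass picks had plate-scaled ratios over 1.5 for the siRNA assay, over 1.6 for the miRNA assay, or under 0.6; two distinct dsRNAs had to score alike on retest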

| gene knocked down | dsRNA | stable siRNA reporter change | stable assay Renilla, run 1 (luminescence) | stable assay firefly, run 1 (luminescence) |
| --- | --- | --- | --- | --- |
| Dcr-2 (GeneID 36993) | DRSC06992 | reporter ratio raised past the hit cutoff (active) | 13630 | 4.28e5 |
| CG2336 (GeneID 40804) | DRSC12581 | – | 7226 | 4.27e5 |
| CG31954 (GeneID 33572) | DRSC00580 | – | 15256 | 6.60e5 |
| PPP4R2r (GeneID 31979) | DRSC18695 | – | 4111 | 3.68e5 |
| PPP4R2r (GeneID 31979) | DRSC21503 | – | 8500 | 5.27e5 |
| CG13000 (GeneID 32685) | DRSC19519 | – | 4867 | 3.45e5 |
| CG11889 + CG11891 | DRSC14426 | – | 6831 | 3.77e5 |
| CG11889 + CG11891 | DRSC14427 | – | 8427 | 4.17e5 |
| OS9 (GeneID 59167) | DRSC02700 | – | 6331 | 4.09e5 |
| CG15563 (GeneID 43695) | DRSC15101 | – | 6590 | 4.40e5 |
| CG16812 (GeneID 34722) | DRSC02519 | – | 21481 | 1.13e6 |
| CG9705 (GeneID 39875) | DRSC11094 | – | 8516 | 3.39e5 |
| maca (GeneID 41892) | DRSC15738 | – | 7007 | 4.51e5 |
| CG42245 + MEP-1 | DRSC07993 | – | 4844 | 4.03e5 |
| CG42245 + MEP-1 | DRSC08274 | – | 10662 | 5.07e5 |
| CG42245 + MEP-1 | DRSC21460 | – | 7498 | 4.48e5 |
| GstE2 (GeneID 37107) | DRSC06672 | – | 6599 | 4.69e5 |
| CG7550 (GeneID 38901) | DRSC10875 | – | 6167 | 4.14e5 |
| CREG (GeneID 42092) | DRSC16595 | – | 6618 | 4.27e5 |
| CG5292 (GeneID 42079) | DRSC15763 | – | 6590 | 3.24e5 |
| Prp31 (GeneID 39655) | DRSC10735 | – | 11197 | 3.71e5 |
| CG30467 (GeneID 36719) | DRSC07097 | – | 6766 | 3.68e5 |
| CG31249 (GeneID 42129) | DRSC16248 | – | 6979 | 4.40e5 |
| qkr54B (GeneID 36966) | DRSC07670 | – | 6647 | 2.96e5 |
| GCS1 (GeneID 32073) | DRSC19744 | – | 8392 | 4.34e5 |
| Cpr92F (GeneID 42450) | DRSC15819 | – | 7699 | 4.50e5 |
| CG13375 (GeneID 30976) | DRSC18621 | – | 6527 | 4.07e5 |
| CG9164 (GeneID 32467) | DRSC19087 | – | 4127 | 3.58e5 |
| CG9164 (GeneID 32467) | DRSC20162 | – | 8336 | 5.04e5 |
| mRpL1 (GeneID 40980) | DRSC16251 | – | 6224 | 3.98e5 |

Entries above with an active call (1):
| gene knocked down | dsRNA | stable siRNA reporter change | stable assay Renilla, run 1 (luminescence) | stable assay firefly, run 1 (luminescence) |
| --- | --- | --- | --- | --- |
| Dcr-2 (GeneID 36993) | DRSC06992 | reporter ratio raised past the hit cutoff (active) | 13630 | 4.28e5 |

Further entries:
| gene knocked down | dsRNA | stable siRNA reporter change | stable assay Renilla, run 1 (luminescence) | stable assay firefly, run 1 (luminescence) |
| --- | --- | --- | --- | --- |
| unc-119 (GeneID 31664) | DRSC18846 | – | 6234 | 3.70e5 |
| CG10947 (GeneID 35309) | DRSC02111 | – | 9573 | 2.45e6 |
| RhoGEF4 (GeneID 38806) | DRSC11011 | – | 7170 | 3.38e5 |
| Ids (GeneID 38423) | DRSC08222 | – | 6432 | 3.97e5 |
| Phs (GeneID 39697) | DRSC10827 | – | 8268 | 3.48e5 |
| CG14968 (GeneID 38406) | DRSC08427 | – | 6826 | 5.05e5 |
| CG5639 (GeneID 43314) | DRSC15851 | – | 6722 | 5.98e5 |
| CG6951 (GeneID 40222) | DRSC10755 | – | 7287 | 4.18e5 |
| Miga (GeneID 31775) | DRSC17821 | – | 5659 | 3.20e5 |
| CG14135 (GeneID 39316) | DRSC10140 | – | 6620 | 3.85e5 |
| RNF220 (GeneID 42690) | DRSC15652 | – | 7324 | 2.61e5 |
| CG14011 (GeneID 33790) | DRSC02343 | – | 7362 | 3.96e5 |
| Vinc (GeneID 31201) | DRSC18728 | – | 6910 | 3.97e5 |
| SelR (GeneID 41309) | DRSC16071 | – | 6930 | 3.86e5 |
| lola (GeneID 44548) | DRSC05220 | – | 5571 | 2.96e5 |
| lola (GeneID 44548) | DRSC05221 | – | 7083 | 5.67e5 |
| lola (GeneID 44548) | DRSC05222 | – | 7522 | 5.94e5 |
| lola (GeneID 44548) | DRSC05223 | – | 7190 | 4.13e5 |
| lola (GeneID 44548) | DRSC05224 | – | 8002 | 5.39e5 |
| lola (GeneID 44548) | DRSC06738 | – | 7135 | 3.71e5 |
| lola (GeneID 44548) | DRSC06739 | – | 6311 | 3.10e5 |
| lola (GeneID 44548) | DRSC06740 | – | 6966 | 3.39e5 |
| lola (GeneID 44548) | DRSC06741 | – | 8834 | 4.95e5 |
| lola (GeneID 44548) | DRSC06742 | – | 4823 | 2.48e5 |
| lola (GeneID 44548) | DRSC07646 | – | 7039 | 3.22e5 |
| lola (GeneID 44548) | DRSC07647 | – | 5375 | 2.49e5 |
| Flo1 (GeneID 36726) | DRSC07427 | – | 10234 | 4.55e5 |
| Hmr (GeneID 31988) | DRSC17740 | – | 4695 | 3.57e5 |
| cysu (GeneID 42100) | DRSC15902 | – | 7227 | 3.41e5 |
| CG34330 (GeneID 2768869) | DRSC20043 | – | 5855 | 5.04e5 |
| NtR (GeneID 43935) | DRSC04628 | – | 6771 | 3.29e5 |
| CG32727 (GeneID 318176) | DRSC17519 | – | 5747 | 3.64e5 |
| CG10222 (GeneID 39504) | DRSC09714 | – | 6228 | 3.73e5 |
| Cont (GeneID 40553) | DRSC12149 | – | 9029 | 3.75e5 |
| CG15337 (GeneID 31748) | DRSC18020 | – | 5803 | 3.47e5 |
| CG15337 (GeneID 31748) | DRSC22778 | – | 4684 | 3.20e5 |
| CG18735 (GeneID 59137) | DRSC04312 | – | 6547 | 3.62e5 |
| CG15742 (GeneID 32276) | DRSC19708 | – | 8439 | 4.54e5 |
| Cfp1 (GeneID 31880) | DRSC18128 | – | 7446 | 5.08e5 |
| snoRNA:Me28S-C3420b + RpS11 | DRSC07396 | – | 5523 | 3.42e5 |
| uif (GeneID 33983) | DRSC00963 | – | 5859 | 4.84e5 |
| uif (GeneID 33983) | DRSC03427 | – | 6655 | 3.73e5 |
| COX7B (GeneID 50266) | DRSC10895 | – | 7110 | 4.44e5 |
| yuri (GeneID 34894) | DRSC01453 | – | 5952 | 5.79e5 |
| yuri (GeneID 34894) | DRSC01454 | – | 5927 | 4.53e5 |
| yuri (GeneID 34894) | DRSC01943 | – | 8186 | 4.03e5 |
| yuri (GeneID 34894) | DRSC01972 | – | 2.14e5 | 1.21e6 |
| CR11023 (GeneID 33155) | DRSC00302 | – | 7531 | 3.29e5 |
| Nprl2 (GeneID 32677) | DRSC20153 | – | 8486 | 5.58e5 |
| Tim17b1 (GeneID 40635) | DRSC12179 | – | 6260 | 3.73e5 |
| tilB (GeneID 33130) | DRSC20634 | – | 5735 | 4.25e5 |
| sNPF-R (GeneID 40195) | DRSC10836 | – | 7674 | 3.59e5 |
| CG31156 (GeneID 42669) | DRSC15753 | – | 8870 | 3.31e5 |
| CG31156 (GeneID 42669) | DRSC15755 | – | 7326 | 4.39e5 |
